Laboratory results: patent US20170165336A1
No constants are given. Whether binding was seen depends on the method and setting. Binding seen in cells or lysates may run through a third protein. Binding can be weak; no strength is given. Sequences can lack the tags named with a protein.

Key:
[1] = molecular target: V5-tagged rev (HIV-1 rev cDNA in pcDNA6-v5-hisA) (HIV-1); assay: co-immunoprecipitation, told again in the discussion
[2] = molecular target: V5-tagged rev (HIV-1 rev cDNA in pcDNA6-v5-hisA) (HIV-1); assay: co-immunoprecipitation with mouse v5 antibody from transfected 293T cell lysates, anti-FLAG immunoblot (interaction RNA-mediated per the filing)
[3] = molecular target: v5-tagged orf57 (RRV orf57 cDNA in pEF1-v5-hisA) (rhesus monkey rhadinovirus (RRV)); assay: as above
[4] = molecular target: V5-tagged rev (HIV-1 rev cDNA in pcDNA6-v5-hisA) (HIV-1); assay: co-immunoprecipitation (FIG. 19a) and strep-tactin pull-down (FIG. 19b)
[5] = molecular target: v5-tagged orf57 (RRV orf57 cDNA in pEF1-v5-hisA) (rhesus monkey rhadinovirus (RRV)); assay: as above

Measured: binding

B1: human schlafen 14 (FLAG-tagged, expressed from pcDNA4-FLAG) (protein)
chain: MESLKTDTEMPYPEVIVDVGRVIFGEENRKKMTNSCLKRSENSRIIRAICALLNSGGGVIKAEIDDKTYSYQCHGLGQDLETSFQKLLPSGSQKYLDYMQQGHNLLIFVKSWSPDVFSLPLRICSLRSNLYRRDVTSAINLSASSALELLREKGFRAQRGRPRVKKLHPQQVLNRCIQEEEDMRILASEFFKKDKLMYKEKLNFTESTHVEFKRFTTKKVIPRIKEMLPHYVSAFANTQGGYVLIGVDDKSKEVVGCKWEKVNPDLLKKEIENCIEKLPTFHFCCEKPKVNFTTKILNVYQKDVLDGYVCVIQVEPFCCVVFAEAPDSWIMKDNSVTRLTAEQWVVMMLDTQSAPPSLVTDYNSCLISSASSARKSPGYPIKVHKFKEALQRHLFPVTQEEVQFKPESLCKKLFSDHKELEGLMKTLIHPCSQGIVIFSRSWAGDVGFRKEQNVLCDALLIAVNSPVVLYTILIDPNWPGGLEYARNTAHQLKQKLQTVGGYTGKVCIIPRLIHLSSTQSRPGEIPLRYPRSYRLADEEEMEDLLQALVVVSLSSRSLLSDQMGCEFFNLLIMEQSQLLSESLQKTRELFIYCFPGVRKTALAIKIMEKIKDLFHCKPKEILYVCESDSLKDFVTQQTTCQAVTRKTFMQGEFLKIKHIVMDETENFCSKYGNWYMKAKNITHPKAKGTGSENLHHGILWLFLDPFQIHHADVNGLPPPSAQFPRKTITSGIHCALEIAKVMKEEMKRIKENPPSNMSPDTLALFSETAYEEATCAQALPGVCETKTNLTTEQIANYVARKCHSLFQCGYLPKDIAILCRRGEDRGRYRLALLKAMELIETHRPSEVVFSPATGVWGSHIVLDSIQQFSGLERTVVFGLSPECDQSEEFHKLCFASRAIKHLYLLYEKRAAY
binds: [1] | [2] | [3] | [4] | [5]
